# Literature values as cited in patent US11654132B2, “Methods for treating COVID-19” (priority 2020, dated 2023).
# At least one structure is not confirmed: it was looked up by name or label, or the drawing left a doubt.
# System: COVID-19
# Details: seriously affected, hospitalized patients; cited from earlier work
smiles,measurement,value
C[C@@H]1C[C@H]2[C@@H]3CCC4=CC(=O)C=C[C@]4(C)[C@@]3(F)[C@@H](O)C[C@]2(C)[C@@]1(O)C(=O)CO [dexamethasone],benefit,clear benefit
